The results in this text go back to PMC6620320.

Amino acid sequences for entries named in this document (tags omitted).
UniProt P16790: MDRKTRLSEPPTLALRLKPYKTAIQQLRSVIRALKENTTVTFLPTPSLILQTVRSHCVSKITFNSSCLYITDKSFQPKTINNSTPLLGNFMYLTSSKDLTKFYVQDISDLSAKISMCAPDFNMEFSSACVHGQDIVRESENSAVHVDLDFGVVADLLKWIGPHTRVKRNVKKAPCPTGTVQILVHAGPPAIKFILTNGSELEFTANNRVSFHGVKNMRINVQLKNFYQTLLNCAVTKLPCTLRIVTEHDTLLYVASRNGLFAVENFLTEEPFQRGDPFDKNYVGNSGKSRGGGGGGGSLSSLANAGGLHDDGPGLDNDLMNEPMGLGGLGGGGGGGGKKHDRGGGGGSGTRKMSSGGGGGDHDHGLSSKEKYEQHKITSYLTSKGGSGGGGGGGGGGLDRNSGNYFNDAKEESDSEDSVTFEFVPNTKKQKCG
UniProt P12956: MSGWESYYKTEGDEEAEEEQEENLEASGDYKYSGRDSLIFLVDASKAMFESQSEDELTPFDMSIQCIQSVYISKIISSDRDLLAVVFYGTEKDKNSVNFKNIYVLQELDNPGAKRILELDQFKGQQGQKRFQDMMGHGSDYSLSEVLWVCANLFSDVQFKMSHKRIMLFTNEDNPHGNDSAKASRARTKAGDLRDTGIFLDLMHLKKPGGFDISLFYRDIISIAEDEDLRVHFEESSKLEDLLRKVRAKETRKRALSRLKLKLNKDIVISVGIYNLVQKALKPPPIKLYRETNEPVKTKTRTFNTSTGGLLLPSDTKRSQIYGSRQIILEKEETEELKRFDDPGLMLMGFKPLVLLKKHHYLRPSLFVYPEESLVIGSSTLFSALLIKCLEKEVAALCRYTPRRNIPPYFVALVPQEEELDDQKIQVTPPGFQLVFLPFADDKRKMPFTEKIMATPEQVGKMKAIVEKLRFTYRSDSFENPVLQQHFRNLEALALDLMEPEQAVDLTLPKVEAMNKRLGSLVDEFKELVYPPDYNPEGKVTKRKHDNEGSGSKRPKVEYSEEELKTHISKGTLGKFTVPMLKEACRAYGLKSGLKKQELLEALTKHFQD

Results are given in words; binding and its absence hold for the method and conditions named. In cells and extracts the contact can be indirect. Some binding calls cover weakened binding; strength is not graded here.

The target of this test is HCMV UL44 (human cytomegalovirus (strain RV1305)) (UniProt P16790). Briefly: co-IP; UL44 precipitated with the human anti-UL44 IgG1 3A11 and Protein G sepharose from lysates of RV1305-infected ARPE-19 cells (uninfected cells as control); lysis buffer 50 mM HEPES pH 7.4, 1% Triton X-100, 150 mM NaCl, 10% glycerol, 0.1 mM DTT, 2 mM EDTA; lysate pre-cleared with isotype antibody; overnight at 4 °C; immunoblots for UL44, nucleolin, ku70 and pp65; interaction with nucleolin and ku70 also seen at 24 h post infection.

Regarding HCMV pp65 (from UniProt P06725 1-561), the binding entry is “binds”.
Turning to ku70 (from UniProt P12956 1-609), the binding entry is “binds”.
